Reference: patent publication US20230242871A1, “GENERATION OF PRIMORDIAL GERM CELLS AND METHODS OF USING THE SAME” (The Board of Trustees of the Leland Stanfor Junior …, priority 2020, published 2023)

B1: CD263 (protein, UniProt O14798 26-236, looked up)
Tumor necrosis factor …: ATTARQEEVPQQTVAPQQQRHSFKGEECPAGSHRSEHTGACNPCTEGVDYTNASNNEPSCFPCTVCKSDQKHKSSCTMTRDTVCQCKEGTFRNENSPEMCRKCSRCPSGEVQVSNCTSWDDIQCVEEFGANATVETPAAEETMNTSPGTPAPAAEETMNTSPGTPAPAAEETMTTSPGTPAPAAEETMTTSPGTPAPAAEETMITSPGTPA
B2: CD2 (protein, UniProt P06729 25-351, looked up)
T-cell surface antigen CD2: KEITNALETWGALGQDINLDIPSFQMSDDIDDIKWEKTSDKKKIAQFRKEKETFKEKDTYKLFKNGTLKIKHLKTDDQDIYKVSIYDTKGKNVLEKIFDLKIQERVSKPKISWTCINTTLTCEVMNGTDPELNLYQDGKHLKLSQRVITHKWTTSLSAKFKCTAGNKVSKESSVEPVSCPEKGLDIYLIIGICGGGSLLMVFVALLVFYITKRKKQRSRRNDEELETRAHRVATEERGRKPHQIPASTPQNPATSQHPPPPPGHRSQAPSHRPPPPGHRVQHQPQKRPPAPSGTQVHQQKGPPLPRPRVQPKPPHGAAENSLSPSSN
B3: CD276 (protein, UniProt Q5ZPR3 29-534, looked up)
CD276 antigen: LEVQVPEDPVVALVGTDATLCCSFSPEPGFSLAQLNLIWQLTDTKQLVHSFAEGQDQGSAYANRTALFPDLLAQGNASLRLQRVRVADEGSFTCFVSIRDFGSAAVSLQVAAPYSKPSMTLEPNKDLRPGDTVTITCSSYQGYPEAEVFWQDGQGVPLTGNVTTSQMANEQGLFDVHSILRVVLGANGTYSCLVRNPVLQQDAHSSVTITPQRSPTGAVEVQVPEDPVVALVGTDATLRCSFSPEPGFSLAQLNLIWQLTDTKQLVHSFTEGRDQGSAYANRTALFPDLLAQGNASLRLQRVRVADEGSFTCFVSIRDFGSAAVSLQVAAPYSKPSMTLEPNKDLRPGDTVTITCSSYRGYPEAEVFWQDGQGVPLTGNVTTSQMANEQGLFDVHSVLRVVLGANGTYSCLVRNPVLQQDAHGSVTITGQPMTFPPEALWVTVGLSVCLIALLVALAFVCWRKIKQSCEEENAGAEDQDGEGEGSKTALQPLKHSDSKEDDGQEIA
B4: CD30 (protein, UniProt P28908 19-595, looked up)
Tumor necrosis factor …: FPQDRPFEDTCHGNPSHYYDKAVRRCCYRCPMGLFPTQQCPQRPTDCRKQCEPDYYLDEADRCTACVTCSRDDLVEKTPCAWNSSRVCECRPGMFCSTSAVNSCARCFFHSVCPAGMIVKFPGTAQKNTVCEPASPGVSPACASPENCKEPSSGTIPQAKPTPVSPATSSASTMPVRGGTRLAQEAASKLTRAPDSPSSVGRPSSDPGLSPTQPCPEGSGDCRKQCEPDYYLDEAGRCTACVSCSRDDLVEKTPCAWNSSRTCECRPGMICATSATNSCARCVPYPICAAETVTKPQDMAEKDTTFEAPPLGTQPDCNPTPENGEAPASTSPTQSLLVDSQASKTLPIPTSAPVALSSTGKPVLDAGPVLFWVILVLVVVVGSSAFLLCHRRACRKRIRQKLHLCYPVQTSQPKLELVDSRPRRSSTQLRSGASVTEPVAEERGLMSQPLMETCHSVGAAYLESLPLQDASPAGGPSSPRDLPEPRVSTEHTNNKIEKIYIMKADTVIVGTVKAELPEGRGLAGPAEPELEEELEADHTPHYPEQETEPPLGSCSDVMLSVEEEGKEDPLPTAASGK
B5: CD314 (protein, UniProt P26718 1-216, looked up)
NKG2-D type II integral …: MGWIRGRRSRHSWEMSEFHNYNLDLKKSDFSTRWQKQRCPVVKSKCRENASPFFFCCFIAVAMGIRFIIMVTIWSAVFLNSLFNQEVQIPLTESYCGPCPKNWICYKNNCYQFFDESKNWYESQASCMSQNASLLKVYSKEDQDLLKLVKSYHWMGLVHIPTNGSWQWEDGSILSPNLLTIIEMQKGDCALYASSFKGYIENCSTPNTYICMQRTV
B6: CD317 (protein, UniProt Q10589 1-161, looked up)
Bone marrow stromal antigen 2: MASTSYDYCRVPMEDGDKRCKLLLGIGILVLLIIVILGVPLIIFTIKANSEACRDGLRAVMECRNVTHLLQQELTEAQKGFQDVEAQAATCNHTVMALMASLDAEKAQGQKKVEELEGEITTLNHKLQDASAEVERLRRENQVLSVRIADKKYYPSSQDSS
B7: CD336 (protein, UniProt O95944 22-276, looked up)
Natural cytotoxicity …: QSKAQVLQSVAGQTLTVRCQYPPTGSLYEKKGWCKEASALVCIRLVTSSKPRTMAWTSRFTIWDDPDAGFFTVTMTDLREEDSGHYWCRIYRPSDNSVSKSVRFYLVVSPASASTQTSWTPRDLVSSQTQTQSCVPPTAGARQAPESPSTIPVPSQPQNSTLRPGPAAPIALVPVFCGLLVAKSLVLSALLVWWGDIWWKTMMELRSLDTQKATCHLQQVTDLPWTSVSSPVEREILYHTVARTKISDDDDEHTL
B8: CD337 (protein, UniProt O14931 19-201, looked up)
Natural cytotoxicity …: LWVSQPPEIRTLEGSSAFLPCSFNASQGRLAIGSVTWFRDEVVPGKEVRNGTPEFRGRLAPLASSRFLHDHQAELHIRDVRGHDASIYVCRVEVLGLGVGTGNGTRLVVEKEHPQLGAGTVLLLRAGFYAVSFLSVAVGSTVYYQGKCLTWKGPRRQLPAVVPAPLPPPCGSSAHLLPPVPGG
B9: CD344 (protein, UniProt Q9ULV1 37-537, looked up)
Frizzled-4: FGDEEERRCDPIRISMCQNLGYNVTKMPNLVGHELQTDAELQLTTFTPLIQYGCSSQLQFFLCSVYVPMCTEKINIPIGPCGGMCLSVKRRCEPVLKEFGFAWPESLNCSKFPPQNDHNHMCMEGPGDEEVPLPHKTPIQPGEECHSVGTNSDQYIWVKRSLNCVLKCGYDAGLYSRSAKEFTDIWMAVWASLCFISTAFTVLTFLIDSSRFSYPERPIIFLSMCYNIYSIAYIVRLTVGRERISCDFEEAAEPVLIQEGLKNTGCAIIFLLMYFFGMASSIWWVILTLTWFLAAGLKWGHEAIEMHSSYFHIAAWAIPAVKTIVILIMRLVDADELTGLCYVGNQNLDALTGFVVAPLFTYLVIGTLFIAAGLVALFKIRSNLQKDGTKTDKLERLMVKIGVFSVLYTVPATCVIACYFYEISNWALFRYSADDSNMAVEMLKIFMSLLVGITSGMWIWSAKTLHTWQKCSNRLVNSGKVKREKRGNGWVKPGKGSETVV
B10: CD365 (protein, UniProt Q96D42 21-364, looked up)
Hepatitis A virus cellular …: SVKVGGEAGPSVTLPCHYSGAVTSMCWNRGSCSLFTCQNGIVWTNGTHVTYRKDTRYKLLGDLSRRDVSLTIENTAVSDSGVYCCRVEHRGWFNDMKITVSLEIVPPKVTTTPIVTTVPTVTTVRTSTTVPTTTTVPMTTVPTTTVPTTMSIPTTTTVLTTMTVSTTTSVPTTTSIPTTTSVPVTTTVSTFVPPMPLPRQNHEPVATSPSSPQPAETHPTTLQGAIRREPTSSPLYSYTTDGNDTVTESSDGLWNNNQTQLFLEHSLLTANTTKGIYAGVCISVLVLLALLGVIIAKKYFFKKEVQQLSVSFSSLQIKALQNAVEKEVQAEDNIYIENSLYATD
B11: CD5 (protein, UniProt P06127 25-495, looked up)
T-cell surface glycoprotein …: RLSWYDPDFQARLTRSNSKCQGQLEVYLKDGWHMVCSQSWGRSSKQWEDPSQASKVCQRLNCGVPLSLGPFLVTYTPQSSIICYGQLGSFSNCSHSRNDMCHSLGLTCLEPQKTTPPTTRPPPTTTPEPTAPPRLQLVAQSGGQHCAGVVEFYSGSLGGTISYEAQDKTQDLENFLCNNLQCGSFLKHLPETEAGRAQDPGEPREHQPLPIQWKIQNSSCTSLEHCFRKIKPQKSGRVLALLCSGFQPKVQSRLVGGSSICEGTVEVRQGAQWAALCDSSSARSSLRWEEVCREQQCGSVNSYRVLDAGDPTSRGLFCPHQKLSQCHELWERNSYCKKVFVTCQDPNPAGLAAGTVASIILALVLLVVLLVVCGPLAYKKLVKKFRQKKQRQWIGPTGMNQNMSFHRNHTATVRSHAENPTASHVDNEYSQPPRNSHLSAYPALEGALHRSSMQPDNSSDSDYDLHGAQRL
B12: CD50 (protein, UniProt P32942 30-547, looked up)
Intercellular adhesion …: QEFLLRVEPQNPVLSAGGSLFVNCSTDCPSSEKIALETSLSKELVASGMGWAAFNLSNVTGNSRILCSVYCNGSQITGSSNITVYRLPERVELAPLPPWQPVGQNFTLRCQVEDGSPRTSLTVVLLRWEEELSRQPAVEEPAEVTATVLASRDDHGAPFSCRTELDMQPQGLGLFVNTSAPRQLRTFVLPVTPPRLVAPRFLEVETSWPVDCTLDGLFPASEAQVYLALGDQMLNATVMNHGDTLTATATATARADQEGAREIVCNVTLGGERREARENLTVFSFLGPIVNLSEPTAHEGSTVTVSCMAGARVQVTLDGVPAAAPGQPAQLQLNATESDDGRSFFCSATLEVDGEFLHRNSSVQLRVLYGPKIDRATCPQHLKWKDKTRHVLQCQARGNPYPELRCLKEGSSREVPVGIPFFVNVTHNGTYQCQASSSRGKYTLVVVMDIEAGSSHFVPVFVAVLLTLGVVTIVLALMYVFREHQRSGSYHVREESTYLPLTSMQPTEAMGEEPSRAE
B13: CD69 (protein, UniProt Q07108 1-199, looked up)
Early activation antigen CD69: MSSENCFVAENSSLHPESGQENDATSPHFSTRHEGSFQVPVLCAVMNVVFITILIIALIALSVGQYNCPGQYTFSMPSDSHVSSCSEDWVGYQRKCYFISTVKRSWTSAQNACSEHGATLAVIDSEKDMNFLKRYAGREEHWVGLKKEPGHPWKWSNGKEFNNWFNVTGSDKCVFLKNTEVSSMECEKNLYWICNKPYK
B14: CD95 (protein, UniProt P25445 26-335, looked up)
Tumor necrosis factor …: QVTDINSKGLELRKTVTTVETQNLEGLHHDGQFCHKPCPPGERKARDCTVNGDEPDCVPCQEGKEYTDKAHFSSKCRRCRLCDEGHGLEVEINCTRTQNTKCRCKPNFFCNSTVCEHCDPCTKCEHGIIKECTLTSNTKCKEEGSRSNLGWLCLLLLPIPLIVWVKRKEVQKTCRKHRKENQGSHESPTLNPETVAINLSDVDLSKYITTIAGVMTLSQVKGFVRKNGVNEAKIDEIKNDNVQDTAEQKVQLLRNWHQLHGKKEAYDTLIKDLKKANLCTLAEKIQTIILKDITSDSENSNFRNEIQSLV

tested on: D3.5 SOX17-GFP+ PGCs; experiment: High-throughput cell-surface marker screening (LEGENDScreen), %PE+; format: cell-based, human; settings: percentage of cells bound to the PE-conjugated antibody (LEGENDScreen)

Compared with B1, B2 is lower in “% PE+ in PGCs” value: 0.02857% for the first, 0% for the second.

Going from B3 to B4, the “% PE+ in PGCs” value falls from 0.9946% to 0%.

Going from B5 to B6, the “% PE+ in PGCs” value rises from 0% to 0.7568%.

B7 and B8 are the same in “% PE+ in PGCs” value: 0% for the first, 0% for the second.

Compared with B9, B10 is lower in “% PE+ in PGCs” value: 0.575% for the first, 0.3529% for the second.

tested on: D3.5 SOX17-GFP- non-PGCs; experiment: as above; format: cell-based, human; settings: percentage of cells bound to the PE-conjugated antibody (LEGENDScreen)

Going from B1 to B2, the “% PE+ in non-PGCs” value falls from 0.1537% to 0%.

Going from B3 to B4, the “% PE+ in non-PGCs” value falls from 0.9994% to 0.0001415%.

Going from B5 to B6, the “% PE+ in non-PGCs” value rises from 6.622E-05% to 0.8957%.

Going from B7 to B8, the “% PE+ in non-PGCs” value falls from 3.219E-05% to 2.429E-05%.

First: B9
Second: B10
The “% PE+ in non-PGCs” value of the first is lower: 0.3957% for the first, 0.5091% for the second.

tested on: undifferentiated hPSC (D0); experiment: as above; format: cell-based, human; settings: percentage of cells bound to the PE-conjugated antibody (LEGENDScreen)

Compared with B1, B2 is lower in “% PE+ in H1 UD” value: 1.91% for the first, 0.039% for the second.

First: B3
Second: B4
The “% PE+ in H1 UD” value of the first is higher: 99.8% for the first, 75.2% for the second.

First: B5
Second: B6
The “% PE+ in H1 UD” value of the first is lower: 0.36% for the first, 99.4% for the second.

Going from B7 to B8, the “% PE+ in H1 UD” value rises from 0.24% to 0.27%.

Going from B9 to B10, the “% PE+ in H1 UD” value falls from 96.5% to 0.28%.

First: B11
Second: B12
The “% PE+ in H1 UD” value of the first is lower: 0.2% for the first, 51.8% for the second.

Compared with B13, B14 is higher in “% PE+ in H1 UD” value: 0.13% for the first, 78.2% for the second.
